# Assay results taken from patent US12662542B2, “Agnostic anti-mullerian hormone receptor binding peptides” (OVARES D LLC, priority 2019, dated 2026).
# Part of at least one peptide drawing is inferred or uncertain, most often the ends. Square brackets hold non-standard residues; d marks the D form. Peptide text beside a SMILES is read from it.
# What was measured:
# [1] = system: luteinized granulosa cells (GCs); assay: real-time RT-PCR of mRNA levels in granulosa cells; type: cell-based, human; conditions: granulosa cells, 10 μg/ml, 24 hours; mean ± SD
# AMH-R2 = biological target: T1, AMH-R2 (Homo sapiens, UniProt Q16671); assay: peptide microarray assay identifying AMH receptor binding peptides; conditions: microarray signal
# T1 construct: GST
# T1 sequence (Q16671 18-573): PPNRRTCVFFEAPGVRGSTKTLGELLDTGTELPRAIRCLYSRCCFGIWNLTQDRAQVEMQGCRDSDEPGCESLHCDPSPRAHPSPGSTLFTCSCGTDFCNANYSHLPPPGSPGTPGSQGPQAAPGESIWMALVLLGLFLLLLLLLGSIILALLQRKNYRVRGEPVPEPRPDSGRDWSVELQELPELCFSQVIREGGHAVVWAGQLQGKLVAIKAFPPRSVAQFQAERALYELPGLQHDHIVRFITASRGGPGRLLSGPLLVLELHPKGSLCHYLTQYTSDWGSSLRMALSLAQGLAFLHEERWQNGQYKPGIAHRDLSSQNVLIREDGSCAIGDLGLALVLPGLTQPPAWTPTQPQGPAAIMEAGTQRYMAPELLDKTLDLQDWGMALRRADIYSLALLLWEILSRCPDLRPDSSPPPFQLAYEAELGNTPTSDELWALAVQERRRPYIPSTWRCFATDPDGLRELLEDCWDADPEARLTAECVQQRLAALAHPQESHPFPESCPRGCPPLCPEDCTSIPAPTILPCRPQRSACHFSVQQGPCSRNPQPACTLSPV
# From the text: In view of the several actions of AMH, and because of the need for AMH receptor agonists and/or antagonist that can modify the activity of one or more of the AMH receptors, provided herein are AMH receptor binding peptides that modulate the activity of the AMH receptor, as described herein. Briefly, it was hypothesized that peptides that bind AMH receptors could be generated based on the amino acid sequence of the AMH biding site of the AMH-R2 receptor. More particularly, based on the amino acid sequence of the AMH-R2 that is responsible for binding AMH, as well as the amino acid sequences of AMH-R2 that are near the AMH binding site, a peptide microarray was used to identify candidate AMH receptor binding peptides that can activate AMH-R2 and thus produce similar effects to native AMH.
# To identify candidate AMH receptor binding peptides described herein, a custom peptide library composed of replicate copies of a 124,000 17 mer peptide microarray was synthesized (Arizona State University, Tempe, AZ) using the method described in Legutki, J. B., et al., Scalable high-density peptide arrays for comprehensive health monitoring. Nat Commun., volume 5, 4785 (2014). The slide was assembled into an Arrayit 4×24 Hybridization Cassette and each peptide microarray was blocked with 150 uL of 30% human sera in 1×PBST for 1 hour at room temperature with shaking After blocking, the slide was washed 3× with 1×PBST using a Biotek plate washer prior to addition of protein targets. Each protein sample was diluted in 30% human sera in 1×PBST and 150 uL of each sample was dispensed into the appropriate wells in the cassette and incubated for 1 hour at 37 C with rotation at 300 rpm on a ThermoMix™ 500 heater/shaker.
# After incubation, the cassette was dismantled, the slide washed 3 times in 1×PBST, rinsed three times with distilled, deionized water (ddH2O), and dried in a centrifuge for 2 minutes at 800 rpm. Secondary antibody (anti-GST, GE Healthcare™) was prepared at 10 nM in 30% human sera in 1×PBST and dispensed onto the slide. The slide was incubated for 1 hour at 37 C with rotation at 300 rpm as before. The slide was then washed 3 times in 1×PBST, rinsed 3 times with ddH2O, and dried in a centrifuge for 2 minutes at 800 rpm. Detection antibody, 10 nM Alexa Flour 647 donkey anti-goat IgG (H+L) (ThermoFisher Scientific™), was prepared in 0.75% casein in 1×PBST and dispensed onto the slide. The slide was covered and incubated for 1 hour at 37 C with rotation as before. The slide was washed 3 times in 1×PBST, rinsed 3 times with ddH2O, and dried in a centrifuge for 2 minutes at 800 rpm. The slide was scanned on an Innopsys™ Inoscan 910AL scanner and the resulting TIFF files were analyzed using the Genepix™ Pro 6.0 software. Data files were exported and analyzed using Microsoft Excel™ and JMP™ software.
# [2] = system: MDAH (endometroid ovarian cancer) cells; assay: MTT cell proliferation assay; type: cell-based
# Procedure: (§1) This example describes the effect of the AMH receptor binding peptides from Example 1 on cellular proliferation, in accordance with certain example embodiments. Briefly, the first two AMH receptor binding peptides (SEQ ID NOS:1-2) from Table 1 were tested on four types of AMHR2-expressing, immortalized, chemotherapy-resistant ovarian cancer cells: SKOV-3 (ovarian serous cystadenocarcinoma), EL-1 (epithelial ovarian cancer), A2780 (endometroid ovarian cancer), and MDAH (endometroid ovarian cancer) in an MTT Assay (Trevigen™ MTT Cell Proliferation Assay).
# (§2) For each cell line, cells were seeded into Falcon tissue culture treated 96-well plates in a fixed volume of 100 mcl at a density of 8,000 cells/well. […] Each experiment was executed in triplicates. For 3+1 treatments×3 wells+10 extra=22 wells×8000 cells per well, the total number of cells needed per AMH receptor binding peptide/cell line was 176,000. The cells were spun down in a sterile 15 ml conical tube for 5 minutes at 200×g and then resuspended in 2.2 ml of media (100 ul per well×22 wells). 100 mcl of the cell-containing fluid (=8,000 cells) were placed in each well of the 96-well plate. After 24 hours the media was removed from each well and replaced with the 4 treatment media (phenol-free media). At this point, 10 extra wells with media, but no cells, were created per each cell line (10×4=40 wells). The AMH receptor binding peptides (AMHR2BP (SEQ ID NO: 1) or AMHR2BP2 (SEQ ID NO: 2)) were administered in the culture medium and the effects analyzed after 24 hours in culture as percentage reduction of cell replication using an MTT […] assay.
# [3] = system: EL-1 (epithelial ovarian cancer) cells; assay: MTT cell proliferation assay; type: cell-based; conditions: lower doses
# Procedure: as §1, §2
# [4] = system: A2780 (endometroid ovarian cancer) cells; assay: MTT cell proliferation assay; type: cell-based
# Procedure: as §1, §2
# [5] = system: SKOV-3 (ovarian serous cystadenocarcinoma) cells; assay: MTT cell proliferation assay; type: cell-based
# Procedure: as §1, §2
# [6] = higher concentrations (10 and 20 μg/ml)
structure (smiles),measurement,setting,value
"CC(C)C[C@@H](NC(=O)[C@@H](C)NC(=O)[C@@H](CCCNC(=N)N)NC(=O)[C@H](CCC(N)=O)NC(=O)[C@H](CC(N)=O)NC(=O)[C@@H](C)NC(=O)[C@H](CC(N)=O)NC(=O)[C@H](C)NC(=O)[C@H](Cc1ccccc1)NC(=O)[C@H](Cc1c[nH]cn1)NC(=O)[C@@H](CCCCN)NC(=O)[C@H](CC(N)=O)NC(=O)[C@H](CO)NC(=O)[C@@H](C)NC(=O)CNC(=O)[C@@H](Cc1c[nH]c2ccccc12)NC(=O)[C@H](N)CCCNC(=N)N)C(=O)O [SEQ ID NO: 4, rwGaSNkHFANaNQral] (H-[dR][dW]G[dA]SN[dK]HFAN[dA]NQ[dR][dA][dL]-OH; N-terminus and C-terminus assumed)",AMH mRNA level,[1],2.91 ± 0.2 pg/μg RNA
same,AMH-R2 mRNA level,[1],9.95 ± 0.1 pg/μg RNA
same,Caspase3 mRNA level,[1],1140.4 ± 16.8 pg/μg RNA
same,FSH-R mRNA level,[1],4.42 ± 0.4 pg/μg RNA
same,Inhibin B mRNA level,[1],94.0 ± 2.7 pg/μg RNA
same,Ki67 mRNA level,[1],428.3 ± 6.8 pg/μg RNA
same,Average,AMH-R2; average of Rep 1 and Rep 2,65462
same,Rep 1,AMH-R2; replicate 1,65509
same,Rep 2,AMH-R2; replicate 2,65414
same,cell proliferation,[2]; [6],decreased proliferation
same,cell proliferation,[2]; low concentration,little effect on cell proliferation
same,cell proliferation,[3],slightly elevated
same,cell proliferation,[4]; [6],decreased proliferation
same,cell proliferation,[4]; low concentration,little effect on cell proliferation
same,cell proliferation,[5]; [6],decreased proliferation
same,cell proliferation,[5]; low concentration,little effect on cell proliferation
